Laboratory results from PubChem BioAssay AID624291 (National Center for Advancing Translational Sciences (NCATS), 2012).
The campaign covered roughly 350,000 compounds. About 220 (0.063%) were called active. The shares of active, inactive and inconclusive entries below differ from those in the screen. Calls come from the whole dose curve; as a rule, active = well fitted activation curve with a large enough effect; inconclusive = small, poorly fitted or top-dose-only effect; inactive = no such curve, though single readings can be large or run the other way. Where the call is inconclusive, the potency comes from a doubtful curve fit.

assay: qHTS for Activators of Integrin-Mediated Alleviation for Muscular Dystrophy; conditions: alpha7betagal myoblasts, beta-gal FDG fluorescence, 48 h; activation: at 38.3 µM (top of the series); note: nearly all actives have a fitted effect of over 60% in size;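 for activation: 100% = response of the positive control SU9516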
Outline: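 Alpha7betagal+/- myoblasts (passage 13) were plated 16-24 hr, then exposed to compounds (1:260 dilution of DMSO stock) for 48 hours at 37C. After MPER lysis, β-galactosidase reporter activity was read as FDG fluorescence (ex 480/em 540) after 30 minutes.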
Potency is the fitted concentration of half-maximal effect.

Compound	Potency	activation
O=C(CNC(=O)c1ccc(F)cc1)c1ccccc1	inconclusive: 3.55 µM [activator, partial curve, poor fit]	
Cc1cccc(NC(=O)C2CCN(S(=O)(=O)c3ccc4c(c3)NC(=O)CO4)CC2)c1C	inconclusive: 31.6 µM [activator, partial curve, poor fit]	
Cn1c(=O)oc2cc(C(=O)c3ccccc3)ccc21		inconclusive: 16.3% [activator]
CC(Oc1ccc(Cl)cc1Cl)C(=O)N(C)c1ccccc1 (configuration not stated)	inconclusive: 7.94 µM [activator, single point]	
CCOc1ccc(CCNC(=O)C2CSC3(C)CCC(=O)N23)cc1OCC (configuration not stated)	inconclusive: 5.62 µM [activator, single point]	
Cc1ccc(S(=O)(=O)N[C@@H](CO)C(=O)N[C@@H](Cc2ccc(O)cc2)C(=O)O)cc1	inconclusive: 11.2 µM [activator, single point]	
COc1ccc(C2/C(=C(/O)c3ccc(C)cc3)C(=O)C(=O)N2c2ccccn2)cc1OC (configuration not stated)	inconclusive: 5.01 µM [activator, partial curve, poor fit]	
CC1(C)CC(=O)C(C=Nc2ccc(NC3=C(C#N)C(=O)CC(C)(C)C3)cc2)=C(O)C1	inconclusive: 28.2 µM [activator, single point]	
O=C(c1ccncc1)N1N=C(C2CCCCC2)CC1(O)C(F)(F)F (configuration not stated)	inactive	
COc1cc2c(cc1OC)C1=NC(=O)CN1C(SCc1ccccc1)=N2	inactive	
COc1ccccc1OCc1ccc(C(=O)Nc2ccccc2)cc1	inconclusive: 28.2 µM [activator, partial curve, poor fit]	
CCN(CC)CCN(C(=O)c1ccc2c(c1)OCCO2)c1nc2ccc(C)cc2s1	inconclusive: 3.16 µM [activator, single point]	
CCc1c(O)nc(SCC(=O)Nc2ccccc2OC)n(-c2ccccc2C)c1=O	inconclusive: 2.51 µM [activator, single point]	
CC(C)c1ccc(NC(=O)C(c2ccccc2)N2CCN(C(=O)c3ccco3)CC2)cc1 (configuration not stated)	inconclusive: 14.1 µM [activator, single point]	
CC(C)Oc1ccc(/C(O)=C2/C(=O)C(=O)N(CCN3CCNCC3)C2c2ccc(C(C)C)cc2)cc1 (configuration not stated)	inconclusive: 3.16 µM [activator, single point]	
CC(C)(C)NC(=O)NCc1ccco1	inconclusive: 4.47 µM [activator, single point]	
CC(C)(C)c1csc(NC(=O)c2ccccc2O)n1	inconclusive: 12.6 µM [activator, partial curve, poor fit]	
CCN1C(=O)c2cccc3c(S(=O)(=O)Nc4ncccc4C)ccc1c23	inconclusive: 8.91 µM [activator, partial curve, poor fit]	
CCOc1cccc2sc(N(CCCN(C)C)C(=O)c3ccc(S(=O)(=O)N(CC)Cc4ccccc4)cc3)nc12	inconclusive: 5.01 µM [activator, single point]	
C=CCOn1c(C)c(C(C)=O)c2c3nonc3ccc21	inconclusive: 11.2 µM [activator, partial curve, poor fit]	
O=C(O)c1cccc(S(=O)(=O)Nc2ccc3oc(=O)sc3c2)c1	inactive	

Shown as labelled records: entries from further up
CCOc1ccc(CCNC(=O)C2CSC3(C)CCC(=O)N23)cc1OCC (configuration not stated)
  Potency: inconclusive: 5.62 µM [activator, single point]
Cc1ccc(S(=O)(=O)N[C@@H](CO)C(=O)N[C@@H](Cc2ccc(O)cc2)C(=O)O)cc1
  Potency: inconclusive: 11.2 µM [activator, single point]

Additional records follow.

Compound	Potency	activation
Cc1ccc(C)c(NC(=O)CN(C)C(=O)C2CCCC2)c1	inconclusive: 2.82 µM [activator, full curve, poor fit]	
COc1ccc(C2/C(=C(/O)c3ccccc3)C(=O)C(=O)N2CCN2CCOCC2)c(OC)c1 (configuration not stated)	inactive	
Cc1ccc(CSc2nnc(SCC(=O)N/N=C/C=C/c3ccco3)s2)cc1	inactive	
CN(C)CCNC(=S)Nc1ccccc1C(C)(C)C	inconclusive: 6.31 µM [activator, single point]	
COc1cccc(-c2nc(CS(=O)CC(=O)NC(C)CCc3ccccc3)c(C)o2)c1 (configuration not stated)	inconclusive: 2.82 µM [activator, single point]	
CC(NC(=S)NCCc1ccccc1)C(c1cccs1)N1CCN(Cc2ccccc2)CC1 (configuration not stated)	inactive	
O=C(Nc1ccc(Cl)cc1Cl)c1ccc(Br)o1		inconclusive: -28% [activator]
O=C(CN1CCCCC1)N/N=C/c1cccc(Cl)c1	inconclusive: 31.6 µM [activator, single point]	
CSC1=NC(=O)/C(=C\c2cccc3ccccc23)S1	inactive	
Cc1cccc(OCC(=O)NCc2cc(C)nc3ccccc23)c1	inconclusive: 1.58 µM [activator, single point]	
Cc1cccc(C(=O)Nc2ccc3c(c2)ncn3C)c1	inconclusive: 3.16 µM [activator, single point]	
COc1ccc(NC(=O)COc2cccc(C(F)(F)F)c2)cn1	inconclusive: 28.2 µM [activator, single point]	
O=C(CN1C2=NCCCN2c2ccccc21)c1ccc(Br)s1	inconclusive: 5.01 µM [activator, single point]	
Nn1c(SCc2nc3ccccn3c2Br)nnc1-c1cccnc1	inconclusive: 2.82 µM [activator, partial curve, poor fit]	
COc1ccc(N2CCN(C(CNS(C)(=O)=O)c3ccco3)CC2)cc1 (configuration not stated)	inconclusive: 1.78 µM [activator, partial curve, poor fit]	
O=C(CCn1cncn1)N1CCCC(N2CCN(c3cccc(C(F)(F)F)c3)CC2)C1 (configuration not stated)		inconclusive: -15.4% [activator]
COCCCNC(=S)NC1CC2CCCC(C1)N2Cc1cccs1 (configuration not stated)	inactive	
O=C(Nc1cccc(Br)c1)c1ccc2c(c1)SC1=NS(=O)(=O)CCN12	inconclusive: 3.16 µM [activator, single point]	
C/C(=N\Nc1nc(C)cc(-c2ccccc2)n1)c1cccc(N)c1	inactive	
Cc1ccc(NC(=O)NCc2cccnc2)cc1	inconclusive: 3.55 µM [activator, single point]	
Cc1cc(NC(=O)CCN2C(=O)/C(=C\c3ccccc3Cl)SC2=S)no1	inconclusive: 5.01 µM [activator, single point]	
